# These are yes or no findings as the source states them, for the method shown. In cells and extracts the contact can be indirect. Here binding means that the protein was enriched with, or labelled near, the bait; the list need not be complete.
# By UniProt entry, the sequences of proteins in these tests, tags left out.
# UniProt P29597: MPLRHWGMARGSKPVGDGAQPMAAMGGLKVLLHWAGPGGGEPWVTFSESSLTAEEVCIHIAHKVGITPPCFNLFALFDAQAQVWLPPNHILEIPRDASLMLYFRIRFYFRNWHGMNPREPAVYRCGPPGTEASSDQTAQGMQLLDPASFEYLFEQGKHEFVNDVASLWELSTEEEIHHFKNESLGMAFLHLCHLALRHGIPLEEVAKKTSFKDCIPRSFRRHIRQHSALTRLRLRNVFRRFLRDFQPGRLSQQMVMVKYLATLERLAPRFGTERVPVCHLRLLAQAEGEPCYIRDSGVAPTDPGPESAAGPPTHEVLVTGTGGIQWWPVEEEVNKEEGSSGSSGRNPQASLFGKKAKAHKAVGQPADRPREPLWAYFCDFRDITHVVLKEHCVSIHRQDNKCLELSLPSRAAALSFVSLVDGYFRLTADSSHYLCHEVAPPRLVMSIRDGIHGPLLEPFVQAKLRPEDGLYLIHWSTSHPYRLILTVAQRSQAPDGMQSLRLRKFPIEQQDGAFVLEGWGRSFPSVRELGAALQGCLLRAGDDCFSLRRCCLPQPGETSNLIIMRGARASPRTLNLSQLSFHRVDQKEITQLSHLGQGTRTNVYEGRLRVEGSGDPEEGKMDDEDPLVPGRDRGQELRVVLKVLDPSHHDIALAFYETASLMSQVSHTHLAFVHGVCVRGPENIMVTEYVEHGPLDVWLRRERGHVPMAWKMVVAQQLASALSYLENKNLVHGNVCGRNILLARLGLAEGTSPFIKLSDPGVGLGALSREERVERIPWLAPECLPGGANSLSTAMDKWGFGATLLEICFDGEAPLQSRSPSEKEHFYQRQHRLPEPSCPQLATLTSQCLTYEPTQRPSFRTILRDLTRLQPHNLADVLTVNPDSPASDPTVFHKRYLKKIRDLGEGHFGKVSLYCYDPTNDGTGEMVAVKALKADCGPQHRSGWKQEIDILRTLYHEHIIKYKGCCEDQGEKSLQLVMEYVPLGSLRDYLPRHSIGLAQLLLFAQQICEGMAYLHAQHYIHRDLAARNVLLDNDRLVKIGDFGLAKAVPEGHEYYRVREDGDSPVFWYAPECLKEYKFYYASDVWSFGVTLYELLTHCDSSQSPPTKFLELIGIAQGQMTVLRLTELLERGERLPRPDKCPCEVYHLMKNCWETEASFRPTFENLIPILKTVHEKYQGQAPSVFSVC
# Biological target: TurboID-V5-TYK2 (human) (UniProt P29597)
# Assay: proximity labelling
row,binding,Substance
1,binds,TurboID-V5-STAT1 (from UniProt P42224-1 1-750)
2,binds,TurboID-V5-STAT2 (from UniProt P52630-3 1-851)
